Measurements reported in PubChem BioAssay AID504808 (Drosophila RNAi Screening Center, 2011)
The screen tested about 21,000 reagents; shown is a random part of those with a known target gene and a result. In the full data, 18 (0.084%) are marked active. 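Raw counts without plate normalisation, one of two replicates; the ratio scores behind the calls were not deposited.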 No sequences are given here. Not stated in the record: the amount of reagent, the time to read-out.

Aim: 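Genes whose loss lifts activity of an E2F-responsive reporter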 (primary screen)
System: Drosophila S2 cells
Reagent: long dsRNA against Drosophila genes
Measured: 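Dual luciferase plate measurements; E2F-specific signal taken as firefly over Renilla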
Scale: E2F firefly: higher = more E2F reporter activity; Renilla normaliser: higher = more normaliser reporter signal
Active means: 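a knock-down counted as active when the firefly/Renilla E2F signal rose above 50%, a threshold chosen arbitrarily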

no.	target gene	dsRNA	E2F firefly, rep 1	Renilla normaliser, rep 1	activity call
1	REG	DRSC20273	1.27e5	6200	inactive
2	CG34034	DRSC13506	87345	2286	inactive
3	CG8547	DRSC07211	2786	195	inactive
4	Nlg3	DRSC12477	52243	3928	inactive
5	Nlg3	DRSC12524	1.21e5	5034	inactive
6	Nlg3	DRSC12540	1.27e5	6200	inactive
7	Nlg3	DRSC12574	1.25e5	6531	inactive
8	CG15580	DRSC12266	1.20e5	6713	inactive
9	CG4741	DRSC04485	1.09e5	4283	inactive
10	Elba3	DRSC00469	93994	4115	inactive
11	CG34181	DRSC01071	1.24e5	6466	inactive
12	aub	DRSC03486	93214	3694	inactive
13	rgr	DRSC06487	3508	252	inactive
14	rgr	DRSC07229	3648	288	inactive
15	RNF220	DRSC15652	68882	3644	inactive
16	PGAP2	DRSC00632	80489	3541	inactive
17	beat-IIIc	DRSC02438	1.17e5	4384	inactive
18	beat-IIIc	DRSC02949	1.08e5	4451	inactive
19	CG13685	DRSC10043	94464	3767	inactive
20	Alp8	DRSC04353	99681	3473	inactive
21	CG4743	DRSC15636	1.16e5	6040	inactive
22	Obp58d	DRSC04162	1.14e5	4796	inactive
23	CG13137	DRSC02234	1.55e5	5003	inactive
24	CG13131	DRSC02227	1.56e5	5752	inactive
25	CG32512	DRSC20519	1.38e5	7023	inactive
26	CG32512	DRSC20551	1.09e5	6728	inactive
27	Pex1	DRSC11358	74087	3635	inactive
28	IKKepsilon	DRSC03550	96779	3779	inactive
29	Recs1	DRSC16545	1.16e5	6659	inactive
30	ais	DRSC10523	67117	3294	inactive
31	CG34280	DRSC13229	87804	2301	inactive
32	CG13306	DRSC09976	1.08e5	4576	inactive
33	Fs(2)Ket	DRSC03328	45296	177	inactive
34	CG32081	DRSC09861	1.38e5	6330	inactive
35	SdhC	DRSC16088	1.40e5	6533	inactive
36	CG5089	DRSC06914	86955	3961	inactive
37	Aps	DRSC10629	1.26e5	7145	inactive
38	CG15096	DRSC06525	71411	3223	inactive
39	CG7707	DRSC10903	1.39e5	7917	inactive
40	CG31088	DRSC13123	78565	2070	inactive
41	CG32302	DRSC08340	1.00e5	4502	inactive
42	CG3909	DRSC14150	1.26e5	5267	inactive
43	CG32812	DRSC18478	79031	4365	inactive
44	CG6179	DRSC19973	1.49e5	6001	inactive
45	PPO1	DRSC05929	81945	3335	inactive
46	CG13654	DRSC14654	1.04e5	5851	inactive
47	fd96Cb	DRSC16947	99980	6128	inactive
48	IP3K2	DRSC19500	1.30e5	6622	inactive
49	IP3K2	DRSC19747	1.41e5	7231	inactive
50	CG12516	DRSC14524	1.14e5	5238	inactive
51	Inx2	DRSC18783	8005	784	inactive
52	CG9021	DRSC03128	78649	3825	inactive
53	jar	DRSC16974	1.02e5	5867	inactive
54	CG13476	DRSC10019	1.52e5	6495	inactive
55	Dbp21E2	DRSC00616	76700	3906	inactive
56	GstD5	DRSC16686	1.54e5	7381	inactive
57	Rabex-5	DRSC08628	77444	3237	inactive

Looked up above.
Under “activity call”, REG [DRSC20273] has inactive
beat-IIIc [DRSC02438], activity call → inactive
CG13306 [DRSC09976], activity call → inactive
Value of CG15580 [DRSC12266] in “Renilla normaliser, rep 1”: 6713
Value of RNF220 [DRSC15652] in “E2F firefly, rep 1”: 68882
Result for CG32812 [DRSC18478] in “E2F firefly, rep 1”: 79031
